According to patent US20220127374A1:
No constants are given. Whether binding was seen depends on the method and setting. Some results given as binding are weak or reduced against the parent protein; the word gives no strength.

Key:
[1] = molecular target: T1, human endothelial protein C receptor (hEPCR) (human) (UniProt Q9UNN8); test: ELISA on plate-coated recombinant hEPCR (0.5 ug/mL), antibody at 1 ug/mL, anti-mouse IgG-HRP, absorbance at 450 nm
T1 sequence: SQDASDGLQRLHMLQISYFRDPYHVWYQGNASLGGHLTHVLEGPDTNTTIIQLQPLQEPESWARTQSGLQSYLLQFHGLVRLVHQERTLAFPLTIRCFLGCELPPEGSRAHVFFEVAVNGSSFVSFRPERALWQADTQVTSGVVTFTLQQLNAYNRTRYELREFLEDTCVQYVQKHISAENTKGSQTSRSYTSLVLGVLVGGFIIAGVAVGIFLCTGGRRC

[2] = molecular target: T1, human endothelial protein C receptor (hEPCR) (human); test: Western blot of DU145 cell lysate (30 ug per lane, reduced and boiled), primary antibody at 1 ug/mL, anti-mouse IgG-HRP
[3] = molecular target: T1, human endothelial protein C receptor (hEPCR) (human); test: flow cytometry, screening of hybridomas for anti-hEPCR IgG (DU145 cells in the validation protocol)

Measured: binding

B1: anti-hEPCR clone H61.3 (antibody, V domains shown)
VH: QVQLQQWGAGLLKPSETLSLTCAVYGGSFSGYYWSWIRQPPGKGLEWIGEINHSGSTNYNPSLKSRVTISVDTSKNQFSLKLSSVTAADTAVYYCARRQLIASSYAFDIWGQGTMVTVSS
VL: EIVMTQSPATLSLSPGERATLSCRASQSVTTRYLSWYQQKPGQAPRLLIYGASTRATGIPARFTGSGSGTDFTLTISSLQPEDFAVYYCQQDYNLFTFGPGTKVDIK
binds: all assays above

B2: anti-hEPCR clone H589.9 (antibody, V domains shown)
VH: EVQLLESGGGLVQPGGSLRLSCAASGFTFSSYAMSWVRQAPGKGLEWVSGSSGSGGSAFYADFVKGRFTISRDISKNTLFLQMNSLRAEDTAVYYCAKEGTISMAFDIWGQGTTVTVSS
VL: AIQMTQSPSSLSASVGDRVTITCRASQGIRNDLGWYQQKPGKAPKLLICAASSLQSGVPSRFSGRGSGTDFTLTISSLQPEDFATYYCLQDYNYPRTFGQGTKVEIK
binds: all assays above

B3: anti-hEPCR clone H599.5 (antibody, V domains shown)
VH: QVQLQESGPGLVQPSETLSLTCTVSGGSISSYYWSWIRQPPGKGLEWIGYIYYSGSTNYNPSLKSRVTISVDTSKNQFSLKLSSVTAADTAVYYCARDQVNGWYRTGFDYWGQGTLVTVSS
VL: EIVMTQSPATLSLSPGERATLSCRASQSVSSGYLSWYQQKPGQAPRLLIYGASTRATGIPARFSGSGSGTDFTLTISSLQPEDFAAYYCQQDYNLPYTFGRGSKLEIK
binds: all assays above

B4: anti-hEPCR clone H754.6 (antibody, V domains shown)
VH: QVQLVESGGGLVTPGGSLRLSCAASGFTFSDYYMTWIRQAPGKGLEWVSYISNSGYTIYYAESVKGRFTISRDNAKSSLYLQMNSLRAEDTAVYYCARDEVSFYYGLDVWGQGTTVTVSS
VL: DIQMTQSPSSLSASAGDRVTITCRASQGIRDDLGWYQQKPGQAPKRLIYAASSLQSGVPSRFSGSGSGTEFTLTISSLQPEDFATYYCLQHNSYPYTFGQGTKLEIK
binds: all assays above
